PubChem BioAssay AID504808 | Drosophila RNAi Screening Center, 2011
The deposit covers about 21,000 reagents; this is an unselected part of those with a known target gene and a result. In the full data, 18 (0.084%) were called active. 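Raw counts without plate normalisation, one of two replicates; the ratio scores behind the calls were not deposited.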 Names joined by + are all predicted targets of the reagent. Not stated in the record: the amount of reagent, the time to read-out.

Test: 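Genes whose loss lifts activity of an E2F-responsive reporter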 (primary screen)
System: Drosophila S2 cells
Knock-down reagent: long dsRNA against Drosophila genes
Measured: 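Firefly luciferase driven by E2F sites, normalised to Renilla luciferase on the same minimal promoter, measured by plate reader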
Reading the numbers: E2F firefly: higher = more E2F reporter activity; Renilla normaliser: higher = more normaliser reporter signal
Active means: 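Called active if the normalised E2F reporter went up by over 50%; the cutoff is arbitrary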

predicted target | amplicon | E2F firefly, rep 1 | Renilla normaliser, rep 1 | activity call
AIMP1 | DRSC07118 | 1.50e5 | 5241 | inactive
Ptpa | DRSC00776 | 85190 | 3506 | inactive
RpS21 | DRSC00833 | 42770 | 4195 | inactive
CG7329 | DRSC03046 | 1.46e5 | 4092 | inactive
PolQ | DRSC17006 | 1.24e5 | 5349 | inactive
Hinfp | DRSC18484 | 1.36e5 | 6225 | inactive
l(3)psg2 | DRSC10484 | 75895 | 3959 | inactive
CG32369 | DRSC10042 | 90719 | 3712 | inactive
CG32369 | DRSC10834 | 63567 | 3157 | inactive
CG14752 | DRSC06488 | 1.39e5 | 4930 | inactive
CG15399 | DRSC00413 | 1.73e5 | 6022 | inactive
RpL34a | DRSC15964 | 97128 | 5832 | inactive
mgl | DRSC17800 | 1.24e5 | 5371 | inactive
mgl | DRSC17823 | 7686 | 836 | inactive
mgl | DRSC17859 | 1.32e5 | 6223 | inactive
mgl | DRSC18004 | 1.24e5 | 6476 | inactive
lobo | DRSC14662 | 97020 | 4647 | inactive
lobo | DRSC14663 | 1.06e5 | 6192 | inactive
retm | DRSC03252 | 94618 | 4121 | inactive
rg | DRSC17377 | 71555 | 2258 | inactive
rg | DRSC17726 | 7432 | 796 | inactive
rg | DRSC18049 | 1.03e5 | 5332 | inactive
sbr | DRSC19770 | 85340 | 4437 | inactive
sbr | DRSC20368 | 59135 | 4871 | inactive
Eo | DRSC20187 | 2.04e5 | 6414 | inactive
CG4069 | DRSC10396 | 69737 | 3277 | inactive
CG17996 + Tsen2 | DRSC02650 | 1.02e5 | 4809 | inactive
CG2201 | DRSC03721 | 78281 | 4456 | inactive
CG14265 | DRSC18591 | 1.13e5 | 5522 | inactive
CG15930 | DRSC18107 | 81981 | 5734 | inactive
CheB38a | DRSC03205 | 1.01e5 | 4077 | inactive
grau | DRSC04691 | 98330 | 4015 | inactive
CG5662 | DRSC19957 | 45952 | 3445 | inactive
CNT1 | DRSC06082 | 1.50e5 | 5109 | inactive

Records listed so far whose gene name begins with M or m:
predicted target | amplicon | E2F firefly, rep 1 | Renilla normaliser, rep 1 | activity call
mgl | DRSC17800 | 1.24e5 | 5371 | inactive
mgl | DRSC17823 | 7686 | 836 | inactive
mgl | DRSC17859 | 1.32e5 | 6223 | inactive
mgl | DRSC18004 | 1.24e5 | 6476 | inactive
